Drawing on patent EP4477666A1, this text covers binding for nine molecules.

Chains of the proteins cited; added tags and fusions are not shown. Lines headed by an entry give the natural chain unless they say otherwise; changes in a name come on top. Residues count along the entry.
UniProt P35658: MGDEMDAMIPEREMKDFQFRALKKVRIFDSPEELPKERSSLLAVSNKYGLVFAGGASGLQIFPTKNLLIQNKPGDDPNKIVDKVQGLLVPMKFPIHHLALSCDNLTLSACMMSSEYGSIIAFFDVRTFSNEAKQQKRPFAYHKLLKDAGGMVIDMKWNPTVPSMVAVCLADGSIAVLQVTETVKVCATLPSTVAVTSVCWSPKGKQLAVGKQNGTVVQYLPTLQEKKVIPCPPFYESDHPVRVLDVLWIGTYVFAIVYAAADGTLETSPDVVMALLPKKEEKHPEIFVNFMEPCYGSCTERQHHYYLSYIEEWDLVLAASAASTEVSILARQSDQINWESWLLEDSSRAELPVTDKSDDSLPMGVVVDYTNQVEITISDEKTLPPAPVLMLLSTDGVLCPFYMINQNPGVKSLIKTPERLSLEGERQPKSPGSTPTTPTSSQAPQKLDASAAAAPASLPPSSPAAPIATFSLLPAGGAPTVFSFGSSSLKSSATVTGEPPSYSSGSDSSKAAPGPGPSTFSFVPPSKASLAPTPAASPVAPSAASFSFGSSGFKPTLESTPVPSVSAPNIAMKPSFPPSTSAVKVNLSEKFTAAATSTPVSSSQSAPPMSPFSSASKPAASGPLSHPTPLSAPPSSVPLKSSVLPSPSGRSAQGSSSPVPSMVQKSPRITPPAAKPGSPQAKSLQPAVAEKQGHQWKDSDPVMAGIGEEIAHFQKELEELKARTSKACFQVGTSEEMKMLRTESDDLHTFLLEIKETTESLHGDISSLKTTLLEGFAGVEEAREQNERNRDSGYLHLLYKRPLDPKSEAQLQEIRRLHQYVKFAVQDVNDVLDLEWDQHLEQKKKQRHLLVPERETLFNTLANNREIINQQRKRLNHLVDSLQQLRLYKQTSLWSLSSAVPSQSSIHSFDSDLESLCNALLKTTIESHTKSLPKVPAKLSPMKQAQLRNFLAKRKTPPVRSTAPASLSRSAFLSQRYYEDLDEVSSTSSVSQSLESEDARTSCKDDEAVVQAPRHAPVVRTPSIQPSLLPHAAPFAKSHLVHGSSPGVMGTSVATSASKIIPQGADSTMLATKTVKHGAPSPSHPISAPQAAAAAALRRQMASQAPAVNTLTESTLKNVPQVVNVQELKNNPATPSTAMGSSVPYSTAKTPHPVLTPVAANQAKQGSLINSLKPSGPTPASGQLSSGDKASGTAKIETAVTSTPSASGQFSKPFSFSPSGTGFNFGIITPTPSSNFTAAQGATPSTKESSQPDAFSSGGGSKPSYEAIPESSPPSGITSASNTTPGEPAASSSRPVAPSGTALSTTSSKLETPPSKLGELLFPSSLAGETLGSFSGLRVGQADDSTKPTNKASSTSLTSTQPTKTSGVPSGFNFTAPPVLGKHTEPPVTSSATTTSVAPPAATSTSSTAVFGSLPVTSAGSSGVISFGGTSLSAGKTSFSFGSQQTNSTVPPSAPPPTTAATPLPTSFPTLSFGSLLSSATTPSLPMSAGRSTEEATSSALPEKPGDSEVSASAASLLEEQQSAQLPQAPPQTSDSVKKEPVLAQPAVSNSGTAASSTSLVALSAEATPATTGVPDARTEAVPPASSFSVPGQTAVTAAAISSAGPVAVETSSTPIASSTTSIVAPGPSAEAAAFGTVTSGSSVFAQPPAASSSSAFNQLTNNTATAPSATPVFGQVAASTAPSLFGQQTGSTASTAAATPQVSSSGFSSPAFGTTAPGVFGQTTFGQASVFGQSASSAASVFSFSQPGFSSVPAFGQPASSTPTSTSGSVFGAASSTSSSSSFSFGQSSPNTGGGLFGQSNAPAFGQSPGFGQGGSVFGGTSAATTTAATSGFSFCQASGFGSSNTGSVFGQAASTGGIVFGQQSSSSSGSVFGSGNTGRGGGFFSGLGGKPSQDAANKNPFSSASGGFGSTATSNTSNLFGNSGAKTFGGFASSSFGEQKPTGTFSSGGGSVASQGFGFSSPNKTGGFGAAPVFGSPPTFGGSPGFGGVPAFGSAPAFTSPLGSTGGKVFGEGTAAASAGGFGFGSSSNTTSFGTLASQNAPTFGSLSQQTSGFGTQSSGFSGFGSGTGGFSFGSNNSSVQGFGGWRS
UniProt Q99567: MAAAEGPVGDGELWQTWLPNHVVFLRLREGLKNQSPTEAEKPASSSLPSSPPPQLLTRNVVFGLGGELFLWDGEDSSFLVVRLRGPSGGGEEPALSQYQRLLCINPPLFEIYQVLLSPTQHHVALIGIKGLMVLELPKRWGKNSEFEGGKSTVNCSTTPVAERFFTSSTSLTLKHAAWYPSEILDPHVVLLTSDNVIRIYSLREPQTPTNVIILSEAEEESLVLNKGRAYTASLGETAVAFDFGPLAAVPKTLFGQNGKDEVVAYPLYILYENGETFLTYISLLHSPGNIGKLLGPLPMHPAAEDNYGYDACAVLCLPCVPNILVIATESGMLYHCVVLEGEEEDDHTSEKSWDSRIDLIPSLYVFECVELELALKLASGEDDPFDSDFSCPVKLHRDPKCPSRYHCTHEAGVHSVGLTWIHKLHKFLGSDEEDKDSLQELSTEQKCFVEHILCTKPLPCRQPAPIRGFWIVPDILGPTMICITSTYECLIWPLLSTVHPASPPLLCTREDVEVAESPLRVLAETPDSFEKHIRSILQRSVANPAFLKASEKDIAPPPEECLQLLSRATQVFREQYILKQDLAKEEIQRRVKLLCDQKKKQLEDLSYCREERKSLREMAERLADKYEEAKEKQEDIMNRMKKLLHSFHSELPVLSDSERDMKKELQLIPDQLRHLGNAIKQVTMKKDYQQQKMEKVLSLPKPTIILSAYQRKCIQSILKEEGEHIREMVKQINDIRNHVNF
UniProt P37198: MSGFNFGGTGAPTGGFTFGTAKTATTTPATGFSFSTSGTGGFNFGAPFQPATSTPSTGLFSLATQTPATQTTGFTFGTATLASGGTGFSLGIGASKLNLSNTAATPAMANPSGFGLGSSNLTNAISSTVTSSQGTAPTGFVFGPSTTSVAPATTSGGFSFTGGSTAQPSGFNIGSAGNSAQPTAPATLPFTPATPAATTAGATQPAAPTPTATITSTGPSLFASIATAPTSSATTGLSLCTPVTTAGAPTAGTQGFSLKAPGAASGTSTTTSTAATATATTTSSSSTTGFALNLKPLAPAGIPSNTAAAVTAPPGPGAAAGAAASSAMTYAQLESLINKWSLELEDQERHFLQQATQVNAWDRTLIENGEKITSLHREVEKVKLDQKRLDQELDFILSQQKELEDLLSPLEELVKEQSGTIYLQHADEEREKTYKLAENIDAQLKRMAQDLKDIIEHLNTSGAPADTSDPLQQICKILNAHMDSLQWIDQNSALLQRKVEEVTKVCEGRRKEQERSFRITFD
UniProt P01870, residues 96-323: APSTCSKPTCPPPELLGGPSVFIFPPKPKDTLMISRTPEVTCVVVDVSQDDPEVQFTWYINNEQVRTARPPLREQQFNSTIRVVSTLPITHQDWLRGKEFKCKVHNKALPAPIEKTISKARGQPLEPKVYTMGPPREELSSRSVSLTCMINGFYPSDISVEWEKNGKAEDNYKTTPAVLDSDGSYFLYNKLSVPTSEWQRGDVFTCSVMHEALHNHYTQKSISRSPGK

Experiment [1] addresses T1, human Nup93 α-solenoid (human) (UniProt Q8N1F7).
T1 sequence (looked up): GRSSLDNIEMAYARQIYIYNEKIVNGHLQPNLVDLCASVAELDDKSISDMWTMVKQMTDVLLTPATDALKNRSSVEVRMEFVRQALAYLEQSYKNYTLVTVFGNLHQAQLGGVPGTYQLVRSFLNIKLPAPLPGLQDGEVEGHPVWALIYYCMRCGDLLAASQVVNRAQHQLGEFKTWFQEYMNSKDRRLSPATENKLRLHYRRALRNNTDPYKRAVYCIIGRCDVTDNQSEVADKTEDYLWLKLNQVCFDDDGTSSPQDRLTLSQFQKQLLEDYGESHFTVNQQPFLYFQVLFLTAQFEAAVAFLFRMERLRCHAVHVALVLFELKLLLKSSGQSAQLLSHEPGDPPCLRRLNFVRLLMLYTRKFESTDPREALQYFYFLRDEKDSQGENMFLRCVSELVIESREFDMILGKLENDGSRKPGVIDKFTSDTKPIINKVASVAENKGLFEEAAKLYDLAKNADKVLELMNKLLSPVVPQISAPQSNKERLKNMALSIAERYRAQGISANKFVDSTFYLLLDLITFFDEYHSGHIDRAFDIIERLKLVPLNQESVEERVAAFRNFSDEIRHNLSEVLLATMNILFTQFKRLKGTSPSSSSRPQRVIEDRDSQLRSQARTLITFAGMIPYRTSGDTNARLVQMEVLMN
Description: Table 1, target and cross-reactivity (immunofluorescence, Figure 1).

Experiment [2] addresses human Nup214·Nup88·Nup62 coiled coil trimer (human) (UniProt P35658+Q99567+P37198). The experiment is described as above.
A further experiment addresses rabbit IgG Fc (rabbit) (UniProt P01870). Briefly: Table 1, target and cross-reactivity; no assay described.
Experiment [3] addresses T2, human Nup107-Nup133 α-solenoid (human) (UniProt P57740+Q8WUM0).
T2 sequence (looked up) 1: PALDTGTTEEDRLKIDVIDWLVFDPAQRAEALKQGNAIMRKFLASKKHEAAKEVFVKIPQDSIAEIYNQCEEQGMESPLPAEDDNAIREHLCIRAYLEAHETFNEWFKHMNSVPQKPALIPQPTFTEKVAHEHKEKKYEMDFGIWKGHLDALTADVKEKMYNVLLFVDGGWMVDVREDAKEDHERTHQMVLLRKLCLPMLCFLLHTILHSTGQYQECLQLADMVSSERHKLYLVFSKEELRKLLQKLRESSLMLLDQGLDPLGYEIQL
T2 sequence (looked up) 2: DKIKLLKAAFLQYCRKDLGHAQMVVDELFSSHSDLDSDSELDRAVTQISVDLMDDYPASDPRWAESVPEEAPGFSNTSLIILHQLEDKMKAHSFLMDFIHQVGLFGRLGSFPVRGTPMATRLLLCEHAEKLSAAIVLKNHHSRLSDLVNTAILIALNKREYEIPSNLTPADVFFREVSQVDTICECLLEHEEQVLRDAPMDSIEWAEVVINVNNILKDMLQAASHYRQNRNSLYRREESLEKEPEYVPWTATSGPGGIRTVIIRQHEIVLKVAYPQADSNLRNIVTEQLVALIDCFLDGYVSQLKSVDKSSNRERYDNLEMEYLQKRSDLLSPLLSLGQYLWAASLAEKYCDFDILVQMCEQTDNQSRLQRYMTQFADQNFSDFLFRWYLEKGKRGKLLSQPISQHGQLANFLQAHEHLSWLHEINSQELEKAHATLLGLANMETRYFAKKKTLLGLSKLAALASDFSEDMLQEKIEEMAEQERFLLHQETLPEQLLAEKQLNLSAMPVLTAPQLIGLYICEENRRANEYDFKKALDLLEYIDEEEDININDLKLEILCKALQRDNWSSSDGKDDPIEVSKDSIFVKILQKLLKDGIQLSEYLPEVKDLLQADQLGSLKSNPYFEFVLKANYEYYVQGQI
Briefly: Table 1, target and cross-reactivity (immunofluorescence, Figure 1).

Experiment [4] addresses T3, human Nup35 RRM domain (human) (UniProt Q8NFH5).
T3 sequence (looked up): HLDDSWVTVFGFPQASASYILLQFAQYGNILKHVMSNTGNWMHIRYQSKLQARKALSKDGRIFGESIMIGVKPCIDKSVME
The experiment is described as above.

Experiment [5] deals with T4, human Nup133 β-propeller (human) (UniProt Q8WUM0).
T4 sequence (looked up): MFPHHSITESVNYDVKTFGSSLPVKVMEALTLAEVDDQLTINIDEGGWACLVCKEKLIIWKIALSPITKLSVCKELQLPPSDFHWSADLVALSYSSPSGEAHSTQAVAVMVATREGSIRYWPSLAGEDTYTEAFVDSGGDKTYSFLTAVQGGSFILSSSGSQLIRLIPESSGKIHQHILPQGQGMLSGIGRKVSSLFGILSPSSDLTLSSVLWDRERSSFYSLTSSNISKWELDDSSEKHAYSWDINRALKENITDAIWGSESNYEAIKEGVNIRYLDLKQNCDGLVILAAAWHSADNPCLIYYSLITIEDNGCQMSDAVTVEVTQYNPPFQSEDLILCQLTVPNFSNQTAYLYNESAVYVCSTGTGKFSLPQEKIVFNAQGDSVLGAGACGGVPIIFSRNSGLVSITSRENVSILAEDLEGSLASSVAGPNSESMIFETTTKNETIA
The experiment is described as above.

No constants are given. Whether binding was seen depends on the method and setting. Some binding calls cover weakened binding; strength is not graded here.

B1: xhNup93-Nb3t (VHH)
VHH: QVQLVESGGGVVQTGDSLMLSCLFSGRPGRVFGHYLMGWFRQIPGKERDVVAAISFSGDPTYYADSVKGRATISRDNAKNTVYLQMNGLKSEDTAVYYCAADRLPYGDSWASKDEYDYWGQGTQVTVSS
As to B1, the binding entry in experiment [1] is reported as “binds”.

B2: Re3E01 (VHH)
VHH: QVQLVESGGGLVQPGGSLRLSCAASGFTFTDYLMAWYRQAPGNQRQLVAYITSDGSTVYASSARGRFTISRDNAKNTVTLQMNSLLLDDTAVYYCSAKSGLKDYYGQGTQVTVSS
For B2, in experiment [2], the binding result is given as “binds”.

B3: Nb116 (VHH)
VHH: QVQLVESGGGLVQPGGSLTLSCTVSRIINWTRMGWSRTAPGKQREFVANIDPSGTTNYADFVKGRFAISVNNDKRTVFLQMNGLKPEDTAVYRCFTIEPDRGTNWGQGTQVTVSS
For B3, the binding result with rabbit IgG Fc (rabbit) was “binds”.

B4: KG2E04 (VHH)
VHH: QVQLVESGGGLVQAGGSLRLSCAASGRGFSGYTWGWFRQVPGKDRTFVAAMSWITGSTYYADSVKGRFTISGDNAKNTLLLQMDNLKPNDTAVYYCAARSKVSPDYDIWGQGTQVTVSS
With B4, in experiment [3], the binding result is on record as “binds”.

B5: KG2B12 (VHH)
VHH: QVQLVESGGGLVQAGGSLRLSCAASGRGFSGYTWGWFRQVPGKERTFVAAMSWITGSTYYADSVKGRFTISGDNAKNTLLLQMNNLKPGDTAVYYCAARSKVSYDYDIWGQGTLVTVSS
Consider B5, for which, in experiment [3], the binding entry is listed as “binds”.

B6: KG2B08 (VHH)
VHH: QVQLVESGGGLVQAGGSLRLSCAASGRGFSGYTWGWFRQVPGKERTFVAAMSWITGSTYYADSVKGRFTISGDNAKNTLLLQMNNLKPGDTAVYYCAARSKVSYDYDIWGQGTQVTVSS
For B6, in experiment [3], the binding result is on record as “binds”.

B7: xhNup35-Nb1t (VHH)
VHH: QVQLVESGGGLVQAGGSLRLSCVGTGNISSAYTMAWYRQAAGKEREVVAGILNGGSTHYADSVKGRFTISRDNAKNTVYLQMNSLQPEDTGVYCCHVVIESTRFVYDHYWGQGTRVTVSS
B7: the binding entry in experiment [4] is given as “binds”.

B8: KG1D08 (VHH)
VHH: QVQLVESGGGLVQAGGSLRLSCAASGRSFRGNIMAWFRQTPGKERLFVASITGSGYTSYENSVKGRFTISRDSARDTVDLQMTTLAPEDTAVYYCAGRFRGGHNRMPDAYEYWGQGTQVTVSS
On to B8, for which the binding entry in experiment [5] is on record as “binds”.

B9: KG1C05 (VHH)
VHH: QVQLVESGGGLVQAGGSLRLACATSGILLSKAVMDWYRQIPGKQRELVARTGIRDSATYADFVKGRFTVSRENENNTVYLQMNSLQPEDAGLYVCKAAVTGVFGRLSEHWGQGTQVTVSS
On to B9, for which the binding entry in experiment [5] is “binds”.
